Results on 28 compounds are retold here after the supplement of paper PMC10735217.

The subject of this assay is HEK293A TEAD-LUC reporter. In words: TEAD-luciferase reporter activity (YAP activation), robust Z score vs plate; higher = stronger YAP/TEAD activation. Conditions: 24 h.

“And” between values parts separate entries of the source, which are not always exact repeats. Equal entries are not always repeated. Structures can show the parent of a compound that is named as a salt. The list shows a part of the results. This data set is noisy: repeats of one test often differ as much as different tests do.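 The human kidney-derived cells carry a stably integrated construct of eight TEAD-binding elements driving luciferase, read by luminescence in a drug-repurposing library screen. A compound counts as a hit when its signal is more than five robust Z scores above the plate mean.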

In the case of `Cc1onc(NS(=O)(=O)c2ccccc2-c2ccc(-c3ncco3)cc2CN(C)C(=O)CC(C)(C)C)c1C` [Edonentan hydrate], the TEAD-luciferase reporter activity is inactive: -0.62 (compound concentration: 200 nM), inactive: 0.771 (compound concentration: 2 uM) and inactive: 0.321 (compound concentration: 10 uM).
Take `CC(=O)NC[C@H]1CN(c2ccc(N3CCOCC3)c(F)c2)C(=O)O1` [linezolid]: the TEAD-luciferase reporter activity (compound concentration: 2 uM) was inactive: -1.03.
On the same count and under the same terms, then `CC(=O)NC[C@H]1CN(c2ccc(N3CCOCC3)c(F)c2)C(=O)O1` [Linezolid], with inactive: -0.689.
As for `CC(=O)NC[C@H]1CN(c2ccc(N3CCOCC3)c(F)c2)C(=O)O1`, the TEAD-luciferase reporter activity runs as follows: (compound concentration: 200 nM) inactive: -1.67; (compound concentration: 10 uM) inactive: 2.02.
On to `CCNC(=O)OC1CCN(c2nncc3cc(OC)c(OC)cc23)CC1`, for which the TEAD-luciferase reporter activity is inactive: -1.45 (compound concentration: 200 nM), inactive: -1.53 (compound concentration: 2 uM) and inactive: 2.38 (compound concentration: 10 uM).
For `COc1cc(/C=C/C(N)=O)cc(OC)c1OC` the same measures were inactive: -0.155, inactive: -1.82 and inactive: 2.57.
For `CCCc1ccc(NS(=O)(=O)Cc2ccccc2)c(=O)n1CC(=O)NCc1ccccc1OC` the same measures were inactive: 0.226, inactive: -1.31 and inactive: 0.327.
For `CC(C)CCCC(C)C1CCC2C3CCC4C[C@@H](N5CC(OS(C)(=O)=O)C5)CC[C@]4(C)C3CC[C@]12C` (stereo partly specified), in that order: inactive: -0.424, inactive: 0.0269 and inactive: 3.48.
With `C=CCCCCCSC(=N)N`, the TEAD-luciferase reporter activity (compound concentration: 200 nM) was inactive: -1.81, the TEAD-luciferase reporter activity (compound concentration: 2 uM) is inactive: 1.39 and the TEAD-luciferase reporter activity (compound concentration: 10 uM) is inactive: -1.
Turning to `CSc1ccc(Oc2ccc(S(N)(=O)=O)cc2CN(C)C)cc1`, the TEAD-luciferase reporter activity was inactive: -0.202 (compound concentration: 200 nM), inactive: -0.504 (compound concentration: 2 uM) and inactive: 1.26 (compound concentration: 10 uM).
For `Cc1cc(Cl)cc2nc(N3CCCNCC3)oc12` the same measures were inactive: -0.365, inactive: -1.35 and inactive: 1.79.
With `CCN(CC)CCOCCOC(=O)C(CC)(CC)c1ccccc1` [Oxeladin citrate salt], the TEAD-luciferase reporter activity reads like this: (compound concentration: 200 nM) inactive: 0.0196; (compound concentration: 10 uM) inactive: 3.91.
For the compound `CCN(CC)CCOCCOC(=O)C(CC)(CC)c1ccccc1`, the TEAD-luciferase reporter activity (compound concentration: 2 uM) was inactive: -0.673.
With `Cn1ncc(Cl)c1-c1cc(C(=O)N[C@H](CN)Cc2cccc(F)c2)sc1Cl` [Afuresertib], the TEAD-luciferase reporter activity (compound concentration: 200 nM) was inactive: 2.92, the TEAD-luciferase reporter activity (compound concentration: 2 uM) was inactive: 1.69 and the TEAD-luciferase reporter activity (compound concentration: 10 uM) was inactive: 4.79.
Turning to `Cn1c(COc2ccc(CC3SC(=O)NC3=O)cc2)nc2ccccc2c1=O` (stereo unspecified) [Balaglitazone], the TEAD-luciferase reporter activity (compound concentration: 200 nM) is inactive: -0.408, the TEAD-luciferase reporter activity (compound concentration: 2 uM) is inactive: -0.834 and the TEAD-luciferase reporter activity (compound concentration: 10 uM) was inactive: 0.944.
For `c1ccc(-c2ccc3ncnc(Nc4ccc(N5CCOCC5)cc4)c3c2)cc1` the same measures were inactive: 0.175, inactive: -1.13 and inactive: -0.686.
For `COc1cc2c(cc1OC(C)C)[C@H](c1ccc(Cl)cc1)N(c1ccc(N(C)C[C@H]3CC[C@H](N4CCN(C)C(=O)C4)CC3)cc1)C(=O)C2`, in that order: inactive: -1.1, inactive: -1.69 and inactive: -0.297.
As for `CN(C)C(=N)NC(=N)N` [metformin, buccal], the TEAD-luciferase reporter activity (compound concentration: 2 uM) was inactive: 0.52.
As for `CN(C)C(=N)NC(=N)N` [metformin, buccal, Generex], the TEAD-luciferase reporter activity (compound concentration: 200 nM) is inactive: -0.988 and the TEAD-luciferase reporter activity (compound concentration: 10 uM) was inactive: 0.563.
For `C#CCOc1ccccc1OCC(O)CNC(C)(C)C` (stereo unspecified), the TEAD-luciferase reporter activity is inactive: -0.701 (compound concentration: 200 nM), inactive: -0.71 (compound concentration: 2 uM) and inactive: -1.06 (compound concentration: 10 uM).
For `CC(=O)c1cc(Nc2cc(C)nc(N)n2)cc(C(C)=O)c1` the same measures were inactive: -1.62, inactive: -0.673 and inactive: 2.75.
With `CN(C)CC1CCC(CNC(=N)c2ccc(CC(NC(=O)C(Cc3ccccc3)NS(=O)(=O)c3ccc4ccccc4c3)C(=O)N3CCCC3)cc2)CC1` (stereo unspecified), the TEAD-luciferase reporter activity is inactive: 0.417 (compound concentration: 200 nM) and inactive: 0.00759 (compound concentration: 10 uM).
On to `CC(C)c1cc2[nH]c(=O)n(NS(C)(=O)=O)c(=O)c2cc1-c1ccnn1C` [Selurampanel], for which the TEAD-luciferase reporter activity is, setting by setting: (compound concentration: 200 nM) inactive: -1.69; (compound concentration: 2 uM) inactive: 0.537; (compound concentration: 10 uM) inactive: 0.207.
Consider `O=C(O)CC1CCc2c1[nH]c1ccc(OCc3ccc(C4CCCC4)c(C(F)(F)F)c3)cc21` (stereo unspecified), for which the TEAD-luciferase reporter activity was inactive: -0.895 (compound concentration: 200 nM); inactive: -0.396 and inactive: -0.528 (compound concentration: 2 uM); inactive: 0.57 (compound concentration: 10 uM).
For the compound `CCCCCCCCCCCC(=O)OCN1C(=O)CCc2ccc(OCCCCN3CCN(c4cccc(Cl)c4Cl)CC3)cc21` [Aripiprazole lauroxil], the TEAD-luciferase reporter activity was inactive: -0.894 (compound concentration: 200 nM), inactive: -1.17 (compound concentration: 2 uM) and inactive: -0.995 (compound concentration: 10 uM).
For `CC(C)(C)NCC(O)COc1cccc2c1C(=O)OC2` (racemic), in that order: inactive: -1.38, inactive: 0.267 and inactive: 4.9.
`Fc1ccc(Oc2cc(Sc3ccccn3)cnc2Nc2ccc(-c3nnn[nH]3)cn2)cc1`: the TEAD-luciferase reporter activity (compound concentration: 200 nM) is inactive: -0.228 and the TEAD-luciferase reporter activity (compound concentration: 10 uM) was inactive: 0.126.
As for `CC(C)c1onc(-c2c(Cl)cccc2Cl)c1COc1ccc(/C=C/c2cccc(C(=O)O)c2)c(Cl)c1`, the TEAD-luciferase reporter activity was inactive: -0.962 (compound concentration: 200 nM), inactive: 2.87 (compound concentration: 2 uM) and inactive: -1.16 (compound concentration: 10 uM).
